Experimental data reported in PubChem BioAssay AID212 (DTP/NCI, 2004).
The list is a part of this screen's results and no random one: it is rich in T/C values a quarter to a half above the control, in often repeated tests (any T/C) and in doses without a T/C. Further doses and runs are listed elsewhere. T/C gives the treated animals as a percentage of the vehicle group. Schedules are NCI's codes, taken here to give the interval after Q, in days (D) or hours (H), and the number of doses after X. Some T/C values carry the count of animals alive at the toxicity check (mostly the fifth day); without a count, all were alive then. Some entries were tested several times; the values are given in rising order. Some molecules as drawn cover several salts, stereoisomers or complexes of the source; a dose is that of the sample tested. Signs of the kind (2×) give the number of equal values in this list. Some doses have a count of surviving animals in place of a T/C: the source files T/C as zero there, which appears to mark a toxic dose or a test without result, not a measured value. Some doses without a T/C left all or most animals alive at the check, yet need not have been tolerated: the source hardly ever lists a survival T/C far under the control, and the zero likely stands for such cases as well. Counts of survivors are from the toxicity check (mostly the fifth day) where no day follows; animals may have died later.

System: BDF1 mice, colon carcinoma 38 sc, T/C %
Test: NCI In Vivo Anticancer Drug Screen. Data for tumor model Colon Carcinoma 38 (subcutaneous) in B6D2F1 (BDF1) mice
Conditions: for T/C: evaluated on day 20
Procedure, shortened: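 Compound antitumor activity was assessed in mice carrying transplantable tumors. Survival or tumor size was recorded, and each value is the treated-group measurement divided by that of the vehicle-treated control group.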

[1] = T/C endpoint: median tumor weight (est.), dose: 100.0 mg/kg/injection, schedule: Q07DX002 (ip), vehicle: saline with Tween-80, higher T/C = larger tumour
[2] = T/C endpoint: median tumor weight (est.), dose: 800.0 mg/kg/injection, schedule: Q07DX002 (ip), vehicle: saline with Tween-80, higher T/C = larger tumour
[3] = T/C endpoint: median tumor weight (est.), dose: 400.0 mg/kg/injection, schedule: Q07DX002 (ip), vehicle: saline with Tween-80, higher T/C = larger tumour
[4] = T/C endpoint: median tumor weight (est.), dose: 5.0 mg/kg/injection, schedule: Q07DX002 (ip), vehicle: saline with Tween-80, higher T/C = larger tumour
[5] = T/C endpoint: median tumor weight (est.), dose: 10.0 mg/kg/injection, schedule: Q07DX002 (ip), vehicle: saline with Tween-80, higher T/C = larger tumour
[6] = T/C endpoint: median tumor weight (est.), dose: 20.0 mg/kg/injection, schedule: Q07DX002 (ip), vehicle: saline with Tween-80, higher T/C = larger tumour
[7] = T/C endpoint: median tumor weight (est.), dose: 40.0 mg/kg/injection, schedule: Q07DX002 (ip), vehicle: saline with Tween-80, higher T/C = larger tumour
[8] = T/C endpoint: median tumor weight (est.), dose: 80.0 mg/kg/injection, schedule: Q07DX002 (ip), vehicle: saline with Tween-80, higher T/C = larger tumour
[9] = T/C endpoint: median tumor weight (est.), dose: 160.0 mg/kg/injection, schedule: Q07DX002 (ip), vehicle: saline with Tween-80, higher T/C = larger tumour

O=C1c2ccccc2C(=O)c2c(NCCNCCO)ccc(NCCNCCO)c21
survivor count (T/C endpoint: median survival time, dose: 10.0 mg/kg/injection, schedule: Q04DX004 (ip), vehicle: saline, higher T/C = longer survival): 10 of 10
T/C (T/C endpoint: median tumor weight (est.), dose: 2.0 mg/kg/injection, schedule: Q07DX002 (ip), vehicle: acid diluted with saline, higher T/C = larger tumour): 127 % of control
T/C (T/C endpoint: median tumor weight (est.), dose: 3.0 mg/kg/injection, schedule: Q07DX003 (ip), vehicle: saline with Tween-80, higher T/C = larger tumour): 139 % of control [9 of 10 alive]
T/C (T/C endpoint: median tumor weight (est.), dose: 6.0 mg/kg/injection, schedule: Q07DX003 (ip), vehicle: saline with Tween-80, higher T/C = larger tumour): 137 % of control
survivor count (T/C endpoint: median tumor weight (est.), dose: 64.0 mg/kg/injection, schedule: Q07DX002 (ip), vehicle: acid diluted with saline, higher T/C = larger tumour): 5 of 10 on day 20
survivor count (T/C endpoint: median tumor weight (est.), dose: 64.0 mg/kg/injection, schedule: Q07DX003 (ip), vehicle: Klucel (hydroxypropylcellulose) (HPC), higher T/C = larger tumour): 6 of 10
survivor count (T/C endpoint: median tumor weight (est.), dose: 64.0 mg/kg/injection, schedule: Q07DX003 (ip), vehicle: water, higher T/C = larger tumour): 4 of 10
survivor count (T/C endpoint: median tumor weight (est.), dose: 128.0 mg/kg/injection, schedule: Q07DX003 (ip), vehicle: Klucel (hydroxypropylcellulose) (HPC), higher T/C = larger tumour): 1 of 10

Cc1cnc(/C=N\NC(N)=S)c2cccc(N)c12
T/C (T/C endpoint: median tumor weight (est.), dose: 3.12 mg/kg/injection, schedule: Q07DX002 (ip), vehicle: saline with Tween-80, higher T/C = larger tumour): 133 % of control
T/C (T/C endpoint: median tumor weight (est.), dose: 3.12 mg/kg/injection, schedule: Q07DX003 (ip), vehicle: saline with Tween-80, higher T/C = larger tumour): 139 % of control
T/C (T/C endpoint: median tumor weight (est.), dose: 12.5 mg/kg/injection, schedule: Q07DX002 (ip), vehicle: saline with Tween-80, higher T/C = larger tumour): 133 % of control
T/C [1]: 132 % of control
survivor count [1]: 4 of 10
survivor count (T/C endpoint: median tumor weight (est.), dose: 100.0 mg/kg/injection, schedule: Q07DX003 (ip), vehicle: saline with Tween-80, higher T/C = larger tumour): 2 of 10

CC/C(=C(/CC)c1ccc(O)cc1)c1ccc(O)cc1
T/C (T/C endpoint: median tumor weight (est.), dose: 50.0 mg/kg/injection, schedule: Q07DX003 (ip), vehicle: saline with Tween-80, higher T/C = larger tumour): 135 % of control

O=C(N[C@H](CO)[C@H](O)c1ccc([N+](=O)[O-])cc1)C(Cl)Cl
T/C (T/C endpoint: median tumor weight (est.), dose: 225.0 mg/kg/injection, schedule: Q07DX002 (ip), vehicle: saline with Tween-80, higher T/C = larger tumour): 132 % of control [9 of 10 alive]
T/C (T/C endpoint: median tumor weight (est.), dose: 900.0 mg/kg/injection, schedule: Q07DX002 (ip), vehicle: saline with Tween-80, higher T/C = larger tumour): 149 % of control
survivor count (T/C endpoint: median tumor weight (est.), dose: 1600.0 mg/kg/injection, schedule: Q07DX002 (ip), vehicle: saline with Tween-80, higher T/C = larger tumour): 2 of 10 on day 20
survivor count (T/C endpoint: median tumor weight (est.), dose: 1800.0 mg/kg/injection, schedule: Q07DX002 (ip), vehicle: saline with Tween-80, higher T/C = larger tumour): 2 of 10 on day 20

Oc1c(Cl)cc(Cl)cc1C=NCCSc1ccc(Cl)cc1
T/C (T/C endpoint: median tumor weight (est.), dose: 400.0 mg/kg/injection, schedule: Q07DX002 (ip), vehicle: Klucel (hydroxypropylcellulose) (HPC), higher T/C = larger tumour): 148 % of control
survivor count (T/C endpoint: median tumor weight (est.), dose: 800.0 mg/kg/injection, schedule: Q07DX002 (ip), vehicle: Klucel (hydroxypropylcellulose) (HPC), higher T/C = larger tumour): 2 of 10 on day 20

CCCCCCCCCCCCCCCC(=O)O[C@@]12C[C@@H](C)[C@@]3(O)[C@@H](C=C(CO)C[C@]4(O)C(=O)C(C)=C[C@@H]34)[C@@H]1C2(C)C
T/C (T/C endpoint: median tumor weight (est.), dose: 0.12 mg/kg/injection, schedule: Q07DX002 (ip), vehicle: saline, higher T/C = larger tumour): 128 % of control [9 of 10 alive]

CN(C)C(=O)c1cccc(COc2ccc(N3C(N)=NC(N)=NC3(C)C)cc2Cl)c1
survivor count (T/C endpoint: median tumor weight (est.), dose: 64.0 mg/kg/injection, schedule: Q07DX003 (ip), vehicle: saline, higher T/C = larger tumour): 6 of 10

N=C1C=C[C@]2(O)C[C@H](Cl)CN12
survivor count (T/C endpoint: median tumor weight (est.), dose: 25.0 mg/kg/injection, schedule: Q07DX002 (ip), vehicle: saline, higher T/C = larger tumour): 0 of 10 on day 20

NNC(=S)N/N=C/c1ccccn1
survivor count (T/C endpoint: median tumor weight (est.), dose: 100.0 mg/kg/injection, schedule: Q07DX002 (ip), vehicle: suspension in saline, higher T/C = larger tumour): 2 of 10 on day 20

COc1ccc(Cl)[n+]([O-])n1
survivor count (T/C endpoint: median tumor weight (est.), dose: 200.0 mg/kg/injection, schedule: Q07DX002 (ip), vehicle: Klucel (hydroxypropylcellulose) (HPC), higher T/C = larger tumour): 2 of 10 on day 20

COc1ccc(C(=O)c2no[n+]([O-])c2C(=O)c2ccc(OC)cc2)cc1
survivor count [2]: 5 of 10 on day 20

CC1(C)CC2(C)OC2C2(C1)N=NC(=Nc1ccccc1)O2 (configuration not stated)
T/C [3]: 127 % of control
survivor count [2]: 4 of 10 on day 20

COc1ccc(S(=O)(=O)N/N=C/C(=O)O)cc1
survivor count [3]: 3 of 10 on day 20

Nc1nc(=S)c2ncn(C3CC(O)C(CO)O3)c2[nH]1 (configuration not stated)
T/C [4]: 30, 61 [9 of 10 alive on day 20], 78, 107, 116, 124, 125 % of control
survivor count [4]: 6 of 10 on day 20
T/C [5]: 32, 40, 42, 44, 58, 89 [9 of 10 alive on day 20], 93 % of control [9 of 10 alive on day 20]
survivor count [5]: 6 of 10 on day 20
T/C [6]: 2, 35, 43, 46, 57, 57 [9 of 10 alive on day 20], 75 % of control
survivor count [6]: 5 of 10 on day 20
T/C [7]: 3, 13, 23, 34, 52, 62, 69 % of control
survivor count [7]: 3 of 10 on day 20
T/C [8]: 1 [9 of 10 alive on day 20], 2 [9 of 10 alive on day 20], 6, 11, 25, 26, 29 % of control [8 of 10 alive on day 20]
survivor count [8]: 2 of 10 on day 20
T/C [9]: 1 [9 of 10 alive on day 20], 2, 2 [8 of 10 alive on day 20] (2×), 7 [7 of 10 alive on day 20], 12 [8 of 10 alive on day 20], 17 % of control [8 of 10 alive on day 20]
survivor count [9]: 1 of 10 on day 20
survivor count (T/C endpoint: median tumor weight (est.), dose: 160.0 mg/kg/injection, schedule: Q07DX003 (ip), vehicle: saline with Tween-80, higher T/C = larger tumour): 3 of 10

N#Cc1cn(C2OC(CO)C(O)C2O)c2ncnc(N)c12 (configuration not stated)
survivor count (T/C endpoint: median tumor weight (est.), dose: 0.5 mg/kg/injection, schedule: Q07DX002 (ip), vehicle: saline, higher T/C = larger tumour): 6 of 10 on day 20
survivor count (T/C endpoint: median tumor weight (est.), dose: 4.0 mg/kg/injection, schedule: Q07DX002 (ip), vehicle: saline, higher T/C = larger tumour): 0 of 10 on day 20

CCC1OC(OC)C=CC1=O (configuration not stated)
survivor count (T/C endpoint: median tumor weight (est.), dose: 200.0 mg/kg/injection, schedule: Q07DX002 (ip), vehicle: saline with Tween-80, higher T/C = larger tumour): 0 of 10 on day 20
survivor count [3]: 0 of 10 on day 20

C=C1C(=O)OC2/C=C(\C)CC(O)/C=C(/CO)CC(OC(=O)/C(C)=C/C)C12 (configuration not stated)
T/C (T/C endpoint: median tumor weight (est.), dose: 15.0 mg/kg/injection, schedule: Q07DX002 (ip), vehicle: saline + alcohol, higher T/C = larger tumour): 147 % of control

C/C=C\C1OC1(C)c1cc(=O)c2c(C)cc3c(c2o1)C(=O)c1c(O)c(C2CC(C)(N(C)C)C(OC(C)=O)C(C)O2)cc(C2CC(N(C)C)C(O)C(C)O2)c1C3=O (configuration not stated)
T/C (T/C endpoint: median tumor weight (est.), dose: 1.5 mg/kg/injection, schedule: Q07DX002 (ip), vehicle: saline + alcohol, higher T/C = larger tumour): 131 % of control

CC(=O)O[C@H]1C(=O)[C@@]2(C)[C@H]([C@H](OC(=O)c3ccccc3)[C@]3(O)C[C@H](OC(=O)[C@H](O)[C@@H](NC(=O)c4ccccc4)c4ccccc4)C(C)=C1C3(C)C)[C@]1(OC(C)=O)CO[C@@H]1C[C@@H]2O
T/C (T/C endpoint: median tumor weight (est.), dose: 15.0 mg/kg/injection, schedule: Q07DX002 (ip), vehicle: Klucel (hydroxypropylcellulose) (HPC), higher T/C = larger tumour): 131 % of control [9 of 10 alive]

NC(=O)Nc1cc(NC(N)=O)cc(N(CCCl)CCCl)c1
survivor count (T/C endpoint: median tumor weight (est.), dose: 80.0 mg/kg/injection, schedule: Q07DX002 (ip), vehicle: Klucel (hydroxypropylcellulose) (HPC), higher T/C = larger tumour): 6 of 10 on day 20
survivor count (T/C endpoint: median tumor weight (est.), dose: 160.0 mg/kg/injection, schedule: Q07DX002 (ip), vehicle: Klucel (hydroxypropylcellulose) (HPC), higher T/C = larger tumour): 0 of 10 on day 20
